These are yes or no findings as the source states them, for the method shown. In cells and extracts the contact can be indirect. Some results given as binding are weak or reduced against the parent protein; the word gives no strength.
Key:
Assay in all cases: co-IP; HUVECs transfected with a tagged plasmid, stimulated with PBS or PA for 48 h, lysed in co-IP buffer with protease inhibitors; Flag-tagged or His-tagged magnetic beads incubated with the lysates at 4°C overnight, washed with PBST three times; western blotting
[1] = biological target: Flag-tagged P300/CBP-Associated Factor (PCAF) (UniProt Q92831)
[2] = biological target: Flag-tagged Yes1 Associated Transcriptional Regulator (YAP) (UniProt P46937)
[3] = biological target: His-tagged MDM2 (UniProt Q00987)

Protein sequences, listed by entry. Tags and fused reporters are not part of them.
UniProt Q92831: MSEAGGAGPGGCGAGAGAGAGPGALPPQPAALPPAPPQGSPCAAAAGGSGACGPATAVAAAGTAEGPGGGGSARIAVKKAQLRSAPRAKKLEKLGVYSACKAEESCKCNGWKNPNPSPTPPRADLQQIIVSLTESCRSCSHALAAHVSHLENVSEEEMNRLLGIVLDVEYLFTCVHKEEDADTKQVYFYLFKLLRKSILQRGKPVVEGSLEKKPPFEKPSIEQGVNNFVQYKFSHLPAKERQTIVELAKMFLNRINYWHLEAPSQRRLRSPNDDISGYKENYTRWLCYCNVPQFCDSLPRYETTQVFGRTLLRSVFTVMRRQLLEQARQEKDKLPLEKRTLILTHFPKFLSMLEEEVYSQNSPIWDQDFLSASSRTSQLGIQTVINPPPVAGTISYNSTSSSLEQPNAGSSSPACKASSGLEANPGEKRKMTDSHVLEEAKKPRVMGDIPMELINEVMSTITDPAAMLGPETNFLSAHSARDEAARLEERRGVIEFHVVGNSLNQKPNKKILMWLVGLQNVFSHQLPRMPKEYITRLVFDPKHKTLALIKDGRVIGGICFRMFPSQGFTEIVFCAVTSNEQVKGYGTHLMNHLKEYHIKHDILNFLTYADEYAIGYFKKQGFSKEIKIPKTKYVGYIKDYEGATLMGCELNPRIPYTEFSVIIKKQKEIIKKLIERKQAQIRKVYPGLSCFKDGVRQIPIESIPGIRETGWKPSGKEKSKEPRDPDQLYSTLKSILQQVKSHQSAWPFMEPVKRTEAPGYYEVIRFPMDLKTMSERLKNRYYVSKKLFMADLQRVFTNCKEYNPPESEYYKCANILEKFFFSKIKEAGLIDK
UniProt P46937: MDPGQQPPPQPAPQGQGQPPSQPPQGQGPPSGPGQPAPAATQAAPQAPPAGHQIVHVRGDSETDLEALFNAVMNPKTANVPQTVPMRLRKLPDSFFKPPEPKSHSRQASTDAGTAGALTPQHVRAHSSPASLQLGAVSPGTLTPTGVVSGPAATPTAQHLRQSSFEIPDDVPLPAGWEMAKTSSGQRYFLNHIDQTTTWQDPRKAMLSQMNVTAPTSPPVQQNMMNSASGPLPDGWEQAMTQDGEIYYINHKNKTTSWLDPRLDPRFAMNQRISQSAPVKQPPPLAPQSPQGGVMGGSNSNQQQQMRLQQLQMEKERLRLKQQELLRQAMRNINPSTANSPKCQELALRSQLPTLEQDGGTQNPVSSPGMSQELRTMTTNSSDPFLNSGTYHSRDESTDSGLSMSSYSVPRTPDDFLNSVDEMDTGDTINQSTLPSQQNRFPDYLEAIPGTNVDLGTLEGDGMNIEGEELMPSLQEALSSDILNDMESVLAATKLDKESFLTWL
UniProt Q00987: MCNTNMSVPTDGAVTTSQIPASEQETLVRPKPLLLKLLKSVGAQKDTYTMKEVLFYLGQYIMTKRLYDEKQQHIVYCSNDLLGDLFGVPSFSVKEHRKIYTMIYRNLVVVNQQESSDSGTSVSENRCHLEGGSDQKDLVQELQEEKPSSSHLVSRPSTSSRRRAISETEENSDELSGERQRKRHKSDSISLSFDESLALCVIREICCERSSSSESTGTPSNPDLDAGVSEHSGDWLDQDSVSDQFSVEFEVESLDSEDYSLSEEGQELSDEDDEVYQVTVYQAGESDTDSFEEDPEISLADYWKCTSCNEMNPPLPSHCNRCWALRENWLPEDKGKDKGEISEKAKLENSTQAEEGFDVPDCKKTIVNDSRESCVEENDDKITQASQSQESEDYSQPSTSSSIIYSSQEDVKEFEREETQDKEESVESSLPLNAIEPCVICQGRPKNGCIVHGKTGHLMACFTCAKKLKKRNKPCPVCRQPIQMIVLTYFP
UniProt Q9GZV5: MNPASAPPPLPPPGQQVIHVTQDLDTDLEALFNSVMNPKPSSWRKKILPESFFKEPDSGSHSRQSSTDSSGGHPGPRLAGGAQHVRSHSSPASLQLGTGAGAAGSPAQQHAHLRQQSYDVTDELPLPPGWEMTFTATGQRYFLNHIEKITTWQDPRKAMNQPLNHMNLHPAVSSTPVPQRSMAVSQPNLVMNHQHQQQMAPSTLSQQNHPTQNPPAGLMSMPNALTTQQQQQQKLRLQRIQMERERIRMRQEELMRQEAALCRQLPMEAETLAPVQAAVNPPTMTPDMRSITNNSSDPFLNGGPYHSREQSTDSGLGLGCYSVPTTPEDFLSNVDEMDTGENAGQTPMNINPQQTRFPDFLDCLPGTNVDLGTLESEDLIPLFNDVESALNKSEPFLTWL

binding [1] | binding [2] | binding [3] | Substance
binds | – | – | MDM2, endogenous in HUVECs (from UniProt Q00987 1-491)
– | binds | binds | P300/CBP-Associated Factor (PCAF), endogenous in HUVECs (from UniProt Q92831 1-832)
binds | – | – | TAZ (also known as WWTR1), endogenous in HUVECs (from UniProt Q9GZV5 1-400)
binds | – | – | Yes1 Associated Transcriptional Regulator (YAP), endogenous in HUVECs (from UniProt P46937 1-504)

Reference: publication PMC9560818
